Data source: PubChem BioAssay AID1259254 (NCATS, 2017)
The deposit covers about 59,000 reagents; shown is a part drawn at random. Of all reagents, about 1,550 (2.6%) are marked active. 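G2 share is only a proxy for re-replication; each gene was hit by three separate siRNAs, and active genes were retested.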 Unmarked entries are inactive. The numbers tell different reagents against one gene apart. Further read-outs or replicates are left out here. The record does not give: the amount of reagent.

Purpose: 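Genome-wide screen for genes that prevent DNA re-replication in cancer cells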 (primary screen)
Cell system: human HCT116 colorectal cancer cells
Knock-down reagent: single siRNA against human genes
Duration: 3 days
Measurement: 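Nuclei stained with Hoechst and imaged; cell-cycle phase assigned by DNA content; G2 share scaled per plate, non-targeting siRNA 0%, GMNN siRNA 100%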
Reading the numbers: G2 robust z-score and G2 cells, % of GMNN control: higher = more G2 cells, more excess DNA replication
Active means: 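Active siRNAs have a G2 robust z of 5 or more median absolute deviations over the median, which in these data means about 38% or higher of GMNN control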

PRDX6 (GeneID 9588) #1 showed G2 robust z-score 1.2; G2 cells, % of GMNN control 11.4.
PRDX6 (GeneID 9588) #2 gave G2 robust z-score 1.59; G2 cells, % of GMNN control 14.2.
PRDX6 (GeneID 9588) #3 gave G2 robust z-score -0.271; G2 cells, % of GMNN control 1.06.
With knock-down of RNF222 (GeneID 643904) #1, the screen gave G2 robust z-score 0.582; G2 cells, % of GMNN control 7.06.
After knock-down of RNF222 (GeneID 643904) #2 the results were G2 robust z-score -0.0073; G2 cells, % of GMNN control 2.92.
Against RNF222 (GeneID 643904) #3 the deposit lists G2 robust z-score 1.27; G2 cells, % of GMNN control 11.9.
After knock-down of RLIM (GeneID 51132) #1, the screen gave G2 robust z-score -0.82; G2 cells, % of GMNN control -2.8.
Knock-down of RLIM (GeneID 51132) #2 gave: G2 robust z-score 5.26 (active); G2 cells, % of GMNN control 39.9.
Knock-down of RLIM (GeneID 51132) #3 came out at: G2 robust z-score -0.194; G2 cells, % of GMNN control 1.61.
C12orf57 (GeneID 113246) #1 gave G2 robust z-score 0.274; G2 cells, % of GMNN control 4.9.
Against C12orf57 (GeneID 113246) #2, the values are G2 robust z-score 2.12; G2 cells, % of GMNN control 17.9.
Depletion of C12orf57 (GeneID 113246) #3 came out at: G2 robust z-score 0.00884; G2 cells, % of GMNN control 3.03.
After knock-down of BAIAP2L2 (GeneID 80115) #1, the screen gave G2 robust z-score 2.51; G2 cells, % of GMNN control 20.6.
BAIAP2L2 (GeneID 80115) #2 scored G2 robust z-score 1.24; G2 cells, % of GMNN control 11.7.
After knock-down of BAIAP2L2 (GeneID 80115) #3, the screen gave G2 robust z-score 2.58; G2 cells, % of GMNN control 21.1.
For LOC646736 (GeneID 646736) #1, the values are G2 robust z-score -0.868; G2 cells, % of GMNN control -3.14.
After knock-down of LOC646736 (GeneID 646736) #2, the record shows G2 robust z-score -0.11; G2 cells, % of GMNN control 2.19.
LOC646736 (GeneID 646736) #3 scored G2 robust z-score -1.11; G2 cells, % of GMNN control -4.85.
